Results are given in words; binding and its absence hold for the method and conditions named. Binding seen in cells or lysates may run through a third protein. A yes stands for co-enrichment or nearness to the bait. Other partners may have been found. Where a sequence is shown, tags or fusion partners need not be part of it.
B1: adenine nucleotide translocator 3 (SLC25A6), endogenous (protein, UniProt P12236 1-298)
chain: MTEQAISFAKDFLAGGIAAAISKTAVAPIERVKLLLQVQHASKQIAADKQYKGIVDCIVRIPKEQGVLSFWRGNLANVIRYFPTQALNFAFKDKYKQIFLGGVDKHTQFWRYFAGNLASGGAAGATSLCFVYPLDFARTRLAADVGKSGTEREFRGLGDCLVKITKSDGIRGLYQGFSVSVQGIIIYRAAYFGVYDTAKGMLPDPKNTHIVVSWMIAQTVTAVAGVVSYPFDTVRRRMMMQSGRKGADIMYTGTVDCWRKIFRDEGGKAFFKGAWSNVLRGMGGAFVLVLYDELKKVI
B2: matrin 3 (MATR3), endogenous (protein, UniProt P43243 1-847)
chain: MSKSFQQSSLSRDSQGHGRDLSAAGIGLLAAATQSLSMPASLGRMNQGTARLASLMNLGMSSSLNQQGAHSALSSASTSSHNLQSIFNIGSRGPLPLSSQHRGDADQASNILASFGLSARDLDELSRYPEDKITPENLPQILLQLKRRRTEEGPTLSYGRDGRSATREPPYRVPRDDWEEKRHFRRDSFDDRGPSLNPVLDYDHGSRSQESGYYDRMDYEDDRLRDGERCRDDSFFGETSHNYHKFDSEYERMGRGPGPLQERSLFEKKRGAPPSSNIEDFHGLLPKGYPHLCSICDLPVHSNKEWSQHINGASHSRRCQLLLEIYPEWNPDNDTGHTMGDPFMLQQSTNPAPGILGPPPPSFHLGGPAVGPRGNLGAGNGNLQGPRHMQKGRVETSRVVHIMDFQRGKNLRYQLLQLVEPFGVISNHLILNKINEAFIEMATTEDAQAAVDYYTTTPALVFGKPVRVHLSQKYKRIKKPEGKPDQKFDQKQELGRVIHLSNLPHSGYSDSAVLKLAEPYGKIKNYILMRMKSQAFIEMETREDAMAMVDHCLKKALWFQGRCVKVDLSEKYKKLVLRIPNRGIDLLKKDKSRKRSYSPDGKESPSDKKSKTDGSQKTESSTEGKEQEEKSGEDGEKDTKDDQTEQEPNMLLESEDELLVDEEEAAALLESGSSVGDETDLANLGDVASDGKKEPSDKAVKKDGSASAAAKKKLKKVDKIEELDQENEAALENGIKNEENTEPGAESSENADDPNKDTSENADGQSDENKDDYTIPDEYRIGPYQPNVPVGIDYVIPKTGFYCKLCSLFYTNEEVAKNTHCSSLPHYQKLKKFLNKLAEERRQKKET

What follows are molecules tested against T1, FLAG–NFAT5_(132–581) (UniProt O94916) (assay: affinity purification with mass spectrometry; anti-FLAG affinity resin on lysates of transfected HeLa cells treated with hypotonic or hypertonic medium; trypsin and Lys-C digest, LTQ-Orbitrap MS/MS).
T1 sequence: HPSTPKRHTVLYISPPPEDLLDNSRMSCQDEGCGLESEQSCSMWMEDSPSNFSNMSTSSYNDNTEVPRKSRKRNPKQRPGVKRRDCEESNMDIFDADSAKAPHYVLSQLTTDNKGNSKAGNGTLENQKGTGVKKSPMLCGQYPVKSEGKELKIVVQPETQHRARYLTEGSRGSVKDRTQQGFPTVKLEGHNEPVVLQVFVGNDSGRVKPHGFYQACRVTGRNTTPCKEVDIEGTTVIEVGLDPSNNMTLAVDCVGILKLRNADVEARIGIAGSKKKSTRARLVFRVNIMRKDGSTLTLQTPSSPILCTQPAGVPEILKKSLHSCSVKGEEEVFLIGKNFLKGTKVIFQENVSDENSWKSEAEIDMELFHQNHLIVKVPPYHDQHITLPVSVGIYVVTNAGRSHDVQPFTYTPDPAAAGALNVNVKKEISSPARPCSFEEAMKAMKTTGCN

binding, binds:
inosine-5'-monophosphate dehydrogenase 2 (IMPDH2), endogenous (from UniProt P12268 1-514)
B1
B2
